# In article PMC9010301:
# For at least one entry, the source does not settle the construct or the ends of the probe. No signal at the amounts used counts as a negative.
# Tested on: Rad24-RFC clamp loader + 9-1-1 clamp (Ddc1-Mec3-Rad17)
# Test: cryo-EM complex assembly
# Conditions: 0.5 mM ATPgS, 5 mM Mg acetate, no ternary complex observed, 3'-terminal ddC on primer strand, 1.8 uM Rad24-RFC, 2.2 uM 9-1-1, 2.7 uM DNA, 9-1-1 + DNA 10 min at 30 C, recombinant protein
sequence,measurement,value
CTGCACGAATTAAGCAATTCGTAATCATGGTCATAGCT / AGCTATGACCATGATTACGAATTGC [3'-recessed DNA],binding result,no binding
